{
  "sequences": {"note": "By UniProt entry, the sequences of proteins in these tests, tags left out. Where a name states a change or a piece, a line headed by the entry shows the natural chain unless it says otherwise.", "UniProt P06788": "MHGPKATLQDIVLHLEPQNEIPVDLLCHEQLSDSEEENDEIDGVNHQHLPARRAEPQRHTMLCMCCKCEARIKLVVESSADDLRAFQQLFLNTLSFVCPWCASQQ", "UniProt P03129": "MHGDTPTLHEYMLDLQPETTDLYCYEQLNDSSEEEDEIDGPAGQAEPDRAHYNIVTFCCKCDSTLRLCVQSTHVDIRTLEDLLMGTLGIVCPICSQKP", "UniProt P14618": "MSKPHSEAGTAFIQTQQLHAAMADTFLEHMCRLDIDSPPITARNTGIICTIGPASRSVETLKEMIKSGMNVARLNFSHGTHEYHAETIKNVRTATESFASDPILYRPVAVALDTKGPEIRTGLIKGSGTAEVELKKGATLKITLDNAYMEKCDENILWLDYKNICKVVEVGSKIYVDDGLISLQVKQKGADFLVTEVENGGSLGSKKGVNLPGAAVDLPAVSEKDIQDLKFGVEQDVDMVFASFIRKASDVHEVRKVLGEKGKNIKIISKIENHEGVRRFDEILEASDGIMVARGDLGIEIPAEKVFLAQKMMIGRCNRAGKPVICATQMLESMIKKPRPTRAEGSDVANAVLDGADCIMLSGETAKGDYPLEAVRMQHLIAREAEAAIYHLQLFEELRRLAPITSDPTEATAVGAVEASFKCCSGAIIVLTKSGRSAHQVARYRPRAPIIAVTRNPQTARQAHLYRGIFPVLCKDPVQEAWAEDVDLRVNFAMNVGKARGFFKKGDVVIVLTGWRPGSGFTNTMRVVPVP"},
  "source": "paper PMC8001101",
  "key": {"[1]": {"biological_target": "GST fused to HPV18 E7 (GST-18E7) (human papillomavirus 18) (UniProt P06788)", "assay": "pull-down; only the target purified"}, "[2]": {"biological_target": "T1, GST fused to HPV45 E7 (GST-45E7) (human papillomavirus 45) (UniProt P21736)", "T1 sequence": "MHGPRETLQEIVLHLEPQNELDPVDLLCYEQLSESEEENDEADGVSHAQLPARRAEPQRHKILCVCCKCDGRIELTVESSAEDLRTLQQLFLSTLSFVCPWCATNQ", "assay": "pull-down; only the target purified"}, "[3]": {"biological_target": "HPV16 E7 oncoprotein, endogenous in SiHa cells (human papillomavirus 16 (endogenous in SiHa)) (UniProt P03129)", "assay": "co-IP"}},
  "note": "Results are given in words; binding and its absence hold for the method and conditions named. In cells and extracts the contact can be indirect. Some results given as binding are weak or reduced against the parent protein; the word gives no strength. For part of these data: Tags and fused reporters may be left off the sequences shown.",
  "data": [
    {"substance": "HA-tagged PKM2 (HA-PKM2) (from UniProt P14618 1-531) (enzyme)", "values": [
      {"measurement": "binding", "setting": "[1]", "result": "binds"},
      {"measurement": "binding", "setting": "[2]", "result": "binds"}
    ]},
    {"substance": "Pyruvate kinase M2 (PKM2), endogenous in SiHa cells (from UniProt P14618-1 1-531) (enzyme)", "values": [
      {"measurement": "binding", "setting": "[3]", "result": "binds"}
    ]}
  ]
}
